These are yes or no findings as the source states them, for the method shown. Binding seen in cells or lysates may run through a third protein. Some binding calls cover weakened binding; strength is not graded here. Sequences can lack the tags named with a protein.

Chains of the proteins cited; added tags and fusions are not shown.
UniProt O00459: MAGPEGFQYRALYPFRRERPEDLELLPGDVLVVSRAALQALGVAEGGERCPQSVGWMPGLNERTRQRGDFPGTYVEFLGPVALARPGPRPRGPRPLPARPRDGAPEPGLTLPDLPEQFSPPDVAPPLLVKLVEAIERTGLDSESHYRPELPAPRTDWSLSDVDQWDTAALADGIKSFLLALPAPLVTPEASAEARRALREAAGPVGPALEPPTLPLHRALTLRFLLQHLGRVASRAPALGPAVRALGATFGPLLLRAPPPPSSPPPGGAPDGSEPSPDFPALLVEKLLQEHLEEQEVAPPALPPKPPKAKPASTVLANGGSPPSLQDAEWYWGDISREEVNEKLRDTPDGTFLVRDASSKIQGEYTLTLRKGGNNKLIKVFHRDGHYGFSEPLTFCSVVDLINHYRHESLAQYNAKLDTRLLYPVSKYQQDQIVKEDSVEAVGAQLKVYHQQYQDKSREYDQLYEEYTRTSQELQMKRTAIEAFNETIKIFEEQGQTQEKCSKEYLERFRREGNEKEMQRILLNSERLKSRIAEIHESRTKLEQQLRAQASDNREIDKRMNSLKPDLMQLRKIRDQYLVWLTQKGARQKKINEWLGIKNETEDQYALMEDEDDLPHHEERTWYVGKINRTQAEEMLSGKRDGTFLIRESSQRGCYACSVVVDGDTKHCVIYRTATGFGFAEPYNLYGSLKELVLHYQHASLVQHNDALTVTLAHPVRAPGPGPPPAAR

The target of assay [1] is p85γ (55 kDa bovine p85 isoform homologous to p55PIK, p55α and p85/AS53) (bovine) (UniProt O46404). Kind of assay: co-expression in insect cells, glutathione-sepharose pull-down, SDS-PAGE and Coomassie staining.
In assay [2] the target is p85β (endogenous, human white blood cells / neutrophil cytosol) (human) (UniProt O00459). Kind of assay: co-immunoprecipitation from human neutrophil cytosol, Western blot. Background: Immunoblotting shows a protein as a band on a membrane.

B1: GST-p110δ (glutathione-S-transferase fusion of human p110δ, expressed in insect cells) (enzyme, not shown: a dimerising Fc or GST)
chain: MPPGVDCPMEFWTKEENQSVVVDFLLPTGVYLNFPVSRNANLSTIKQLLWHRAQYEPLFHMLSGPEAYVFTCINQTAEQQELEDEQRRLCDVQPFLPVLRLVAREGDRVKKLINSQISLLIGKGLHEFDSLCDPEVNDFRAKMCQFCEEAAARRQQLGWEAWLQYSFPLQLEPSAQTWGPGTLRLPNRALLVNVKFEGSEESFTFQVSTKDVPLALMACALRKKATVFRQPLVEQPEDYTLQVNGRHEYLYGSYPLCQFQYICSCLHSGLTPHLTMVHSSSILAMRDEQSNPAPQVQKPRAKPPPIPAKKPSSVSLWSLEQPFRIELIQGSKVNADERMKLVVQAGLFHGNEMLCKTVSSSEVSVCSEPVWKQRLEFDINICDLPRMARLCFALYAVIEKAKKARSTKKKSKKADCPIAWANLMLFDYKDQLKTGERCLYMWPSVPDEKGELLNPTGTVRSNPNTDSAAALLICLPEVAPHPVYYPALEKILELGRHSECVHVTEEEQLQLREILERRGSGELYEHEKDLVWKLRHEVQEHFPEALARLLLVTKWNKHEDVAQMLYLLCSWPELPVLSALELLDFSFPDCHVGSFAIKSLRKLTDDELFQYLLQLVQVLKYESYLDCELTKFLLDRALANRKIGHFLFWHLRSEMHVPSVALRFGLILEAYCRGRTHHMKVLMKQGEALSKLKALNDFVKLSSQKTPKPQTKELMHLCMRQEAYLEALSHLQSPLDPSTLLAEVCVEQCTFMDSKMKPLWIMYSNEEAGSGGSVGIIFKNGDDLRQDMLTLQMIQLMDVLWKQEGLDLRMTPYGCLPTGDRTGLIEVVLRSDTIANIQLNKSNMAATAAFNKDALLNWLKSKNPGEALDRAIEEFTLSCAGYCVATYVLGIGDRHSDNIMIRESGQLFHIDFGHFLGNFKTKFGINRERVPFILTYDFVHVIQQGKTNNSEKFERFRGYCERAYTILRRHGLLFLHLFALMRAAGLPELSCSKDIQYLKDSLALGKTEEEALKHFRVKFNEALRESWKTKVNWLAHNVSKDNRQ
Consider B1, for which the binding entry in assay [1] was “binds”.

B2: p110δ (human, untagged) (enzyme)
chain: MPPGVDCPMEFWTKEENQSVVVDFLLPTGVYLNFPVSRNANLSTIKQLLWHRAQYEPLFHMLSGPEAYVFTCINQTAEQQELEDEQRRLCDVQPFLPVLRLVAREGDRVKKLINSQISLLIGKGLHEFDSLCDPEVNDFRAKMCQFCEEAAARRQQLGWEAWLQYSFPLQLEPSAQTWGPGTLRLPNRALLVNVKFEGSEESFTFQVSTKDVPLALMACALRKKATVFRQPLVEQPEDYTLQVNGRHEYLYGSYPLCQFQYICSCLHSGLTPHLTMVHSSSILAMRDEQSNPAPQVQKPRAKPPPIPAKKPSSVSLWSLEQPFRIELIQGSKVNADERMKLVVQAGLFHGNEMLCKTVSSSEVSVCSEPVWKQRLEFDINICDLPRMARLCFALYAVIEKAKKARSTKKKSKKADCPIAWANLMLFDYKDQLKTGERCLYMWPSVPDEKGELLNPTGTVRSNPNTDSAAALLICLPEVAPHPVYYPALEKILELGRHSECVHVTEEEQLQLREILERRGSGELYEHEKDLVWKLRHEVQEHFPEALARLLLVTKWNKHEDVAQMLYLLCSWPELPVLSALELLDFSFPDCHVGSFAIKSLRKLTDDELFQYLLQLVQVLKYESYLDCELTKFLLDRALANRKIGHFLFWHLRSEMHVPSVALRFGLILEAYCRGRTHHMKVLMKQGEALSKLKALNDFVKLSSQKTPKPQTKELMHLCMRQEAYLEALSHLQSPLDPSTLLAEVCVEQCTFMDSKMKPLWIMYSNEEAGSGGSVGIIFKNGDDLRQDMLTLQMIQLMDVLWKQEGLDLRMTPYGCLPTGDRTGLIEVVLRSDTIANIQLNKSNMAATAAFNKDALLNWLKSKNPGEALDRAIEEFTLSCAGYCVATYVLGIGDRHSDNIMIRESGQLFHIDFGHFLGNFKTKFGINRERVPFILTYDFVHVIQQGKTNNSEKFERFRGYCERAYTILRRHGLLFLHLFALMRAAGLPELSCSKDIQYLKDSLALGKTEEEALKHFRVKFNEALRESWKTKVNWLAHNVSKDNRQ
For B2, the binding result in assay [2] is “binds”.

The values above are taken from patent US20060018893A1.
